Reference: patent EP4737473A1, “NOVEL COMPLEMENT INHIBITOR AND PREPARATION, USE AND PRODUCT THEREOF” (Liu, Xiaorong, priority 2023, dated 2025)
pIC50: −log10 of the molar value. At least one peptide structure holds a part that was inferred or is arguable (an end, a ring closure or a residue). Positions of bridges follow the written chain, without caps; N, C: chain ends. Non-standard residues stand in square brackets, D forms with d. Residues, ends and D or L forms follow the SMILES beside them. ξ: configuration not given here. ξTrp(5-F) = NC(Cc1c[nH]c2ccc(F)cc12)C(=O)O; 2Nal = N[C@@H](Cc1ccc2ccccc2c1)C(=O)O; Aib = CC(C)(N)C(=O)O

Tested on: classical pathway complement
Assay: Classical pathway complement inhibition assay (ELISA, human plasma)
Format: biochemical
Conditions: human plasma 1:40 in VBS, 15 minutes at room temperature
Experimental: The half-inhibitory concentration values of SEQ ID NO.1-6 were evaluated by the classical pathway complement inhibition assay. The association constant (Ka), dissociation constant (Kd), and equilibrium dissociation constant (KD) were determined by surface plasmon resonance (SPR) assay.
The complement inhibition assay can be performed with reference to the following steps: Evaluation was performed by an established enzyme-linked immunosorbent assay (ELISA). Under normal ambient temperature, 96-well plates were coated with 50 µL of 1% ovalbumin in PBS for 2 hours. […] After washing, complement activation (C3b/iC3b/C3d bound to immune complexes) was detected using HRP-conjugated goat α-human C3 antibody (1:1000; MP Biomedicals). The reaction was performed using HRP substrate (0.05% ABTS and 0.1% H2O2 dissolved in 0.1 M sodium citrate, pH 4.2), and the absorbance was read at 405 nm using a VICTOR multi-label plate reader (PerkinElmer, Waltham, MA). 100% complement activation was obtained in the absence of the C3 peptide inhibitor, and the absorbance data obtained at 405 nm were converted to the percentage of complement inhibition. […] Surface plasmon resonance (SPR) experiments were performed using a Biacore 3000 instrument (GE Healthcare, Piscataway Town, NJ), and the binding affinity and kinetic characteristics of the cyclic peptides were evaluated by SPR.

SMILES	pIC50
CC[C@H](C)[C@H](NC(C)=O)C(=O)N[C@H]1CSSC[C@@H](C(=O)N[C@H](C(N)=O)[C@@H](C)O)NC(=O)[C@H](CCCNC(=N)N)NC(=O)[C@H](Cc2c[nH]cn2)NC(=O)[C@H](C)NC(=O)CNC(=O)[C@H](Cc2c[nH]c3ccccc23)NC(=O)[C@H](CC(=O)O)NC(=O)[C@H](CCC(N)=O)NC(=O)[C@H](Cc2cn(C)c3ccccc23)NC(=O)[C@H](C(C)C)NC1=O [SEQ ID NO.7, reference compound]	6.00
CC[C@H](C)[C@H](NC(C)=O)C(=O)N[C@H]1CSSC[C@@H](C(=O)N[C@H](C(N)=O)[C@@H](C)O)NC(=O)[C@H](CCCNC(=N)N)NC(=O)[C@H](Cc2c[nH]cn2)NC(=O)C(C)(C)NC(=O)CNC(=O)C(Cc2c[nH]c3ccc(F)cc23)NC(=O)[C@H](CC(=O)O)NC(=O)[C@H](CCC(N)=O)NC(=O)[C@H](Cc2ccc3ccccc3c2)NC(=O)[C@H](C(C)C)NC1=O (some centres unmarked) [SEQ ID NO.3, Ac-ICV-2Nal-QD-5F-Trp-G-Aib-HRCT-NH2(C-C)] (Ac-ICV[2Nal]QD[ξTrp(5-F)]G[Aib]HRCT-NH2; disulfide 2-12)	5.84
